PMC3422239
These are yes or no findings as the source states them, for the method shown. Binding can be weak; no strength is given. For some assays here: Sequences can lack the tags named with a protein.

Tests used:
[1] = biological target: T1, endogenous IRS-2 of Fao (rat hepatoma) cells (rat (endogenous in Fao)) (UniProt F1MAL5); assay: far-Western, overlay or dot blot; IRS-2 immunoprecipitated with IRS-2 antibody from 250 µg Fao cell protein, 5-15% gel, nitrocellulose; overlay with 14-3-3ζ-HRP; cells serum starved, 10 nM insulin or 50 ng/ml IGF-1 for 30 min; both purified
T1 sequence: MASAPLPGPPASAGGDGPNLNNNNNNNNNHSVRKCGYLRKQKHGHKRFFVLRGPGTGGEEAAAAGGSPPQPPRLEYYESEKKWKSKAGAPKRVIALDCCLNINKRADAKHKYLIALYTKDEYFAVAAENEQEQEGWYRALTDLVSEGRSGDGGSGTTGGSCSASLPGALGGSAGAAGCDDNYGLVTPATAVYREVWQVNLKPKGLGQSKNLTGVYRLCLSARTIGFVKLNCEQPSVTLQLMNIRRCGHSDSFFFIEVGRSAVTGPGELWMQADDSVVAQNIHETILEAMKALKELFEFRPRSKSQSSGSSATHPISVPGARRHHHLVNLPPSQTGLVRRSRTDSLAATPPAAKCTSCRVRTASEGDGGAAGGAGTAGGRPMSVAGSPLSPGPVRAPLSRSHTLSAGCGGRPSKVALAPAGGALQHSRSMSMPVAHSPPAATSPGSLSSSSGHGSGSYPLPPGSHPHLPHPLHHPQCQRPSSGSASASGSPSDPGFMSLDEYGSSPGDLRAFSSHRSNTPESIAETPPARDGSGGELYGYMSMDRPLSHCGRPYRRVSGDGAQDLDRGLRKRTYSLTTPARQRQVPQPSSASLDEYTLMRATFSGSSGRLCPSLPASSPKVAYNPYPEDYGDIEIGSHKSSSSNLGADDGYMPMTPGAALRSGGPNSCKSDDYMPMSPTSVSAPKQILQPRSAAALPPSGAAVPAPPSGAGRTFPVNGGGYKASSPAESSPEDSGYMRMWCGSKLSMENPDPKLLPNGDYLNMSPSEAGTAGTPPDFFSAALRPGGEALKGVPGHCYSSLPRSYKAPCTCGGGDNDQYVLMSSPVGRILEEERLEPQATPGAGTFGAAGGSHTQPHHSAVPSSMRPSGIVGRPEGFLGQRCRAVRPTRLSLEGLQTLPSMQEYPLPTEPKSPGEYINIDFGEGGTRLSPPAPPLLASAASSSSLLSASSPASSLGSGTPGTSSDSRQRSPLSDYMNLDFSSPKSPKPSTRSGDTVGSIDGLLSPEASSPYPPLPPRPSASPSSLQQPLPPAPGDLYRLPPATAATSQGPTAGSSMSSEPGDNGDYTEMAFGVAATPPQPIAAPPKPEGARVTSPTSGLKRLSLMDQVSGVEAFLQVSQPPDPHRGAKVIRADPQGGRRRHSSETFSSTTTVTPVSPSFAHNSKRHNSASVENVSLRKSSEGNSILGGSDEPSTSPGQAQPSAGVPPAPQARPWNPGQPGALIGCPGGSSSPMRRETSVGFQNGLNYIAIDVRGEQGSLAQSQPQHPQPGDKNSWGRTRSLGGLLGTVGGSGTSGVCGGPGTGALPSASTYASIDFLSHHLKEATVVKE

GFP-IRS2-T401A (mouse) = biological target: T2, GFP-IRS2-T401A (mouse) (UniProt P81122); assay: far-Western, overlay or dot blot; GFP-tagged IRS-2 pulled down with GFP-Trap from HEK293 or Flp-In HEK293 lysates, SDS-PAGE, nitrocellulose; membrane incubated overnight at 4°C with 14-3-3ζ-HRP, ECL; cells serum starved, IGF-1, or PI-103, wortmannin or Akti-1/2 before IGF-1; both purified
T2 sequence: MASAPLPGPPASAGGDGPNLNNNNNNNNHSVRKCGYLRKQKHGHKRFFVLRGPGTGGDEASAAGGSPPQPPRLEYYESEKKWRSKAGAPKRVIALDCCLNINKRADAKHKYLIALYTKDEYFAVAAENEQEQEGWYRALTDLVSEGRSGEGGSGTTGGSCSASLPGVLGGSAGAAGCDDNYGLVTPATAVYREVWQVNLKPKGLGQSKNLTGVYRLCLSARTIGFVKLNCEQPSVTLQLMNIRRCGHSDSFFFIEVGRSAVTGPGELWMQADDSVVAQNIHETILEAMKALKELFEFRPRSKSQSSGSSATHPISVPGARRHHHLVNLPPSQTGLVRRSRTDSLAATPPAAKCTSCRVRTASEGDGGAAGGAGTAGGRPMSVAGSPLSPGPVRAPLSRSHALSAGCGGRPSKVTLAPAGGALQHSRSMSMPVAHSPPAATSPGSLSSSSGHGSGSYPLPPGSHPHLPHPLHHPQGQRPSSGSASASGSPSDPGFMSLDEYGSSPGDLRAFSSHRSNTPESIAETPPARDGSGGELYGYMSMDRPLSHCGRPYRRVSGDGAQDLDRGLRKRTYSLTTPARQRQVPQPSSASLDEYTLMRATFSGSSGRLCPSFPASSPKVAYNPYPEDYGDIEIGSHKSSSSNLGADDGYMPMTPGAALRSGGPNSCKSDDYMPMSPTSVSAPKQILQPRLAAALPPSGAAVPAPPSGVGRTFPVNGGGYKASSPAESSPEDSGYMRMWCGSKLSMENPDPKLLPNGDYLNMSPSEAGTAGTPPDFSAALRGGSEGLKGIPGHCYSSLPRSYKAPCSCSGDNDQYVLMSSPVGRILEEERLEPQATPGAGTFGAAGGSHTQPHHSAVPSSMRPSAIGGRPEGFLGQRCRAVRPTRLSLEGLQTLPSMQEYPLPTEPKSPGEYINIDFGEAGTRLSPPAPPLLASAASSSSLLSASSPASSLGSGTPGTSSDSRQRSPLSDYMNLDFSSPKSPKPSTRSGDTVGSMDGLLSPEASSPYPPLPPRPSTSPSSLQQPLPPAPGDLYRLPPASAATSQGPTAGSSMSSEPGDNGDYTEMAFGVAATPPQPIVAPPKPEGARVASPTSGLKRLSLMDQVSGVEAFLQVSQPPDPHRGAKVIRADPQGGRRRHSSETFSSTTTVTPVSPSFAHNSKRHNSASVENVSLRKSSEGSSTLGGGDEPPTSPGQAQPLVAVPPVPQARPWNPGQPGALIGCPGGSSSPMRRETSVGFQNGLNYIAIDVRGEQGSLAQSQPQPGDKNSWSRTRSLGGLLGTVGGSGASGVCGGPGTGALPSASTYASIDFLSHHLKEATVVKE

For Recombinant human 14-3-3ζ-HRP, the binding [1] was “binds” and the binding (GFP-IRS2-T401A (mouse)) was “binds”.
